Data reported in patent publication US9181303B2, “Treatment of bacterial infections with cyclic antimicrobial peptides” (N[…], priority 2005, dated 2015).
Some entries share one result that the patent states for a list of compounds. Part of at least one peptide drawing is inferred or uncertain, most often the ends.

How the values were obtained:
[1] = test system: T. interdigitale; experiment: Broth dilution antifungal susceptibility testing, T. interdigitale; type: cell-based, Trichophyton interdigitale
Method: (§1) Broth Dilution Antifungal Susceptibility Testing
(§2) The sensitivity of relevant fungal strains to the cyclized peptides was determined using Clinical Laboratory Standard Institute (CLSI; formerly NCCLS) Approved Standards. Fungal susceptibility was tested using “Reference Method for Broth Dilution Antifungal Susceptibility Testing of Filamentous Fungi; Approved Standard M38-P”, and yeast susceptibility was tested using “Reference Method for Broth Dilution Antifungal Susceptibility Testing of Yeasts; Approved Standard—Second Edition M27-A”.
T. interdigitale susceptibility to peptides 2-8 was tested. Peptides 2, 4 and 6 were active towards T. interdigitale.

[2] = test system: T. rubrum; experiment: Broth dilution antifungal susceptibility testing (CLSI M38-P), T. rubrum; type: cell-based, Trichophyton rubrum; conditions: T. rubrum cultures
Method: as §1, §2
T. rubrum susceptibility to peptides 1-8 was tested.

**Q.** What does the source list for “Cyclic-DK-DK-DK-DK-DK-DK-DK-G [Peptide 8]”?
**A.** MIC versus T. interdigitale [1]: > 4.0 mM; MIC versus T. rubrum [2]: > 4 mM

**Q.** “Cyclic-DO-DO-DO-DO-DO-DO-DO-G [Peptide 7]” was tested. Which “MIC versus T. rubrum” value [2] did it give?
**A.** The value was greater than 4 mM.

**Q.** Cyclic-K-K-K-K-K-K-K-G [Peptide 3] was tested. Which “MIC versus T. interdigitale” value [1] did it give?
**A.** Its value is greater than 4.0 mM.
